According to patent US6767887B1 (Roche Diagnostics GmbH, priority 1999, dated 2004):
Where no end group is shown, it is not given here.

Test: general procedure: Fmoc solid-phase peptide synthesis; PAL-Ala-aminomethyl-polystyrene(1%)divinylbenzene (0.5 mmol/g) or TentaGel Rink-amide (0.18 mmol/g); DIC/HOBt or TBTU/HOBt with DIEA
Conditions: whole synthesis, scale of the general procedure 0.02 mmol or 0.0076 mmol

| Substance | final purity (method not given) |
| --- | --- |
| [Y^2, Nle^14, R^30]-Ex-3-(1-30)—NH2 | 95% |
| Ac-[Nle^14, R^30]-Ex-3-(3-30)—NH2 | 99% |
| [A^14, R^30]-Ex-3-(1-30)—NH2 | 95% |
| [K^2, Nle^14, R^30]-Ex-3-(1-30)—NH2 | 95% |
| [K^2, P^3, A^14, R^30]-Ex-3-(1-30)—NH2 | 99% |
| [A^2, Nle^14, R^30]-Ex-3-(1-30)—NH2 | 95% |
| [Q^2, Nle^14, R^30]-Ex-3-(1-30)—NH2 | >99% |
| HSDGTFTSDLSKQMEEEAVRLFIEWLKNGR-NH2 | 99% |
| [Nla^14, R^30]-Ex-3-(2-30)—NH2 | >99% |
| [I^2, Nle^14, R^30]-Ex-3-(1-30)—NH2 | >99% |
| [Nle^14, R^30]-Ex-3-(1-30)—OH | 95% |
| [Nle^14, R^30]-Ex-3-(3-30)—NH2 | >99% |
| [M^2, Nle^14, R^30]-Ex-3-(1-30)—NH2 | >99% |
| [V^2, Nle^14, R^30]-Ex-3-(1-30)—NH2 | >99% |
| HSEGTFTSDLSKQAEEEAVRLFIEWLKNGR-NH2 | 99% |
| [H^2 Nle^14R^30]-Ex-3-(1-30)—NH2 | >99% |
| [G^2, Nle^14, R^30]-Ex-3-(1-30)—NH2 | 95% |

| Substance | final purity (method not given) |
| --- | --- |
| [F^2, Nle^14, R^30]-Ex-3-(1-30)—NH2 | 98% |
| [N^2Nle^14, R^30]-Ex-3-(1-30)—NH2 | >99% |
| [C^2, Nle^14, R^30]-Ex-3-(1-30)—NH2 | 95% |
| HGEGTFTSDLSKQMEEEAVRAFIEWLKAGR-NH2 (C-terminal amide) | ≧95% |
| [P^2, Nle^14, R^30]-Ex-3-(1-30)—NH2 | 96% |
| [Nle^14, R^30]-Ex-3-(1-30)—NH2 | 95% |
| HSDGTFTSDLSKQNleEEEAVRLFIEWLKNGY—NH2 | >99% |
| [W^2, Nle^14, R^30]-Ex-3-(1-30)—NH2 | >99% |
| [T^2, Nle^14, R^30]-Ex-3-(1-30)—NH2 | >99% |
| [R^2, Nle^14, R^30]-Ex-3-(1-30)—NH2 | >99% |
| [E^2, Nle^14, R^30]-Ex-3-(1-30)—NH2 | >99% |
| HSDGTFTSDLSKQ-Nle-EEEAVRLFIEWLENGR-H2 | ≧99% |
| [L^2, Nle^14, R^30]-Ex-3-(1-30)—NH2 | >99% |
| HGEGTFTSDLSKQMEEEAVRAFIEWLKNGR-NH2 | ≧95% |
| [Nle^14]-Ex-3-(1-27)—NH2 | 99% |
| [D^2, Nle^14, R^30]-Ex-3-(1-30)—NH2 | 95% |
| HADGTFTSDLSSYMEGQAVKEFIAWLVKGR-NH2 | 99% |
